Test system: hNGAL mutein L1, SEQ ID NO: 28 (C26 + R43P/E44V/K46P/D47E/K50L/M51L)
Test: SPR (Biacore), immobilized Y-DTPA-RNaseA
Assay type: binding, human
Experimental: Real time analysis of hNGAL variants was performed on a BIAcore X system (BIAcore, Uppsala, Sweden) using PBS/t (PBS containing 0.005% (v/v) Tween 20) as running buffer. 5 to 27 μg/ml solutions of the Me•DTPA-RNase conjugate in 10 mM Na-acetate, pH 5.0 were immobilized on a CM5 chip using standard amine coupling chemistry, resulting in a ligand density of 240 to 1800 resonance units (RU). The purified hNGAL variant was applied at a flow rate of 5 or 25 μl/min at concentrations of 0.5 up to 500 nM. The sensorgrams were corrected by subtraction of the corresponding signals measured for the control channel, which had been activated and blocked with ethanolamine. Kinetic data evaluation was performed by global fitting with BIAevaluation software V 3.0 (Karlsson et al. (1991) J. Immunol. Methods 145, 229-240). Alternatively, the plateau values at the end of the association phase (after 200 s) were plotted against the applied protein concentration and fitted as in the ELISA (see above) to determine the equilibrium dissociation constants (KO.
The new hNGAL variant L1 was analyzed by SPR as in Example 8 using a Biacore CM-5 chip with the covalently attached Y-DTPA-RNaseA conjugate and applying the purified recombinant protein.

B1: Y^3+•DTPA-RNase: p-SCN-Bn-CHX-A″-DTPA covalently coupled to bovine ribonuclease A (about 1:1), charged with Y^3+; ligand is the chelate group (conjugate, UniProt P61823 27-150, looked up)
Ribonuclease pancreatic: KETAAAKFERQHMDSSTSAASSSNYCNQMMKSRNLTKDRCKPVNTFVHESLADVQAVCSQKNVACKNGQTNCYQSYSTMSITDCRETGSSKYPNCAYKTTQANKHIIVACEGNPYVPVHFDASV
modifications: CHX-A''-DTPA chelate with Y3+
notes: p-SCN-Bn-CHX-A″-DTPA covalently coupled to bovine ribonuclease A (about 1:1), charged with Y^3+; ligand is the chelate group
improvement of dissociation rate constant compared with C26: 3.4 -fold | reduction of association rate constant compared with C26: 10 -fold
